These are yes or no findings as the source states them, for the method shown. In cells and extracts the contact can be indirect. Binding can be weak; no strength is given.

For the assay, the target named is myc-tagged Entamoeba replacement Arp2 (Entamoeba histolytica). Briefly: co-IP; cleared cell lysates (50 mM Tris pH 8.0, 100 mM NaCl, 1 mM EDTA, 1% Triton X-100, protease inhibitors) incubated with mAb 9E10 anti-myc bound to protein G-sepharose, 1 hr at 4°C, 4 washes; blots probed with antibodies to Dictyostelium Arp2, Arp3 and p21-arc.

B1: Dictyostelium p21-arc subunit of the Arp2/3 complex (protein, UniProt O96624 1-174)
chain: MVYHSQFNDESAGFRLVGNVPILPLKTTHKGPAPKGDANSVDIIDEALDLFKANILFRNFEVQGNGDRVLIYLTLYITKCLLKIAPMNKADAEKALFLIAQEQFSIPGESAFPLGGLVTVPNTRDAADTLRQYFTQLRLELGVRLCQRVYAVDPSKANKWWICFSKRKFLNKAL
With B1, the binding entry is “binds”.

Source of the values: PMC1904233.
